# PubChem BioAssay AID1224828 | NIAID – 2016
# Purpose: 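Knock-downs that increase or decrease LPS-induced p65 nuclear translocation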 (primary screen)
# Cells: mouse RAW264.7 G9 macrophage reporter cells (GFP-p65, Tnf promoter-mCherry)
# Reagents: siRNA pool against mouse genes, 100 nM
# Timing: 2 days siRNA transfection, then 40 min LPS before fixation
# Treatment: LPS (Salmonella minnesota R595) at 10 ng/ml
# Measured: 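Microscopy ratio of nuclear to perinuclear-ring GFP-p65 signal, scaled to the plate median; gene score is the average of two replicate robust z-scores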
# Reading the numbers: p65 translocation robust z-score: higher = more nuclear NF-kappaB p65 after LPS than the plate median; nuclear/cytoplasmic p65 ratio: higher = more nuclear NF-kappaB p65
# Rule for the call: 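Called active when z exceeds 3.3 or falls under -1.56 (median of Tlr4 controls), giving activity score of at least 50; no calls for control wells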
# Calls: active = hit (p65 shift raised or lowered); inactive = no clear change
# The deposit covers about 17,000 reagents; below is a random part of them. Of all reagents, 762 (4.5%) were called active. 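Active calls include both raised and lowered p65 entry, mostly lowered; wells with fewer than 50 cells lack a z-score.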 Raw values are not corrected between plates. A number with no mark means an inactive call. Reagents against one gene are numbered here. Some reagents were tested in more than one well and are listed for each.
Target gene,reagent no.,p65 translocation robust z-score,"nuclear/cytoplasmic p65 ratio, rep 1","nuclear/cytoplasmic p65 ratio, rep 2",low cell count flag
Or8w1,1,0.25,1.71,1.6,enough cells to score
Rasgrp3,1,0.03,1.49,1.33,enough cells to score
Tas2r121,1,-0.4,1.5,1.48,enough cells to score
Col4a5,1,-0.12,1.4,1.41,enough cells to score
Angel1,1,1.1,1.64,1.65,enough cells to score
Nherf4,1,-0.58,1.32,1.22,enough cells to score
Defb15,1,0.31,1.63,1.57,enough cells to score
Klhl15,1,0.5,1.54,1.57,enough cells to score
Glyctk,1,-0.48,1.21,1.49,enough cells to score
Mef2d,1,-0.22,1.28,1.32,enough cells to score
Sema3e,1,0,1.43,1.55,enough cells to score
Sema3e,2,,1.51,1.17,fewer than 50 cells per well; well left out of scoring
Tmeff2,1,-0.14,1.35,1.25,enough cells to score
Adprs,1,-0.17,1.66,1.53,enough cells to score
Scn10a,1,0.73,1.63,1.77,enough cells to score
Ptprn,1,-0.7,1.47,1.36,enough cells to score
Fgf9,1,0.59,1.5,1.46,enough cells to score
Rab5if,1,,1.42,1.47,fewer than 50 cells per well; well left out of scoring
Astn2,1,-1.11,1.41,1.38,enough cells to score
Tpm3,1,-0.61,1.29,1.2,enough cells to score
Itgam,1,0.62,1.53,1.49,enough cells to score
Or6c88,1,,1.44,1.18,fewer than 50 cells per well; well left out of scoring
Tm4sf4,1,-0.39,1.49,1.44,enough cells to score
Tubb4b,1,-0.51,1.55,1.52,enough cells to score
Oxt,1,-0.27,1.48,1.36,enough cells to score
Xlr5c,1,-0.85,1.24,1.21,enough cells to score
Ly6g6g,1,0.12,1.4,1.75,enough cells to score
Alx3,1,-0.44,1.58,1.52,enough cells to score
Ube2dnl1,1,2.34,2.14,1.83,enough cells to score
Larp1b,1,,1.29,1.51,fewer than 50 cells per well; well left out of scoring
Myoz2,1,0.35,1.79,1.69,enough cells to score
Frk,1,-0.04,1.8,1.28,enough cells to score
Slc17a5,1,1.53,1.66,1.8,enough cells to score
Cd81,1,,1.19,1.12,fewer than 50 cells per well; well left out of scoring
Sv2a,1,2.66,1.78,1.24,enough cells to score
Cox5a,1,0.61,1.67,1.87,enough cells to score
Acot4,1,,1.58,1.23,fewer than 50 cells per well; well left out of scoring
Timm10,1,,1.46,1.11,fewer than 50 cells per well; well left out of scoring
Cds2,1,0.46,1.6,1.93,enough cells to score
Vamp4,1,-0.3,1.37,1.18,enough cells to score
Myo7a,1,-0.88,1.4,1.17,enough cells to score
Dph5,1,0.7,1.45,1.59,enough cells to score
Mb21d2,1,-0.81,1.29,1.42,enough cells to score
Gm5134,1,1.01,1.91,1.66,enough cells to score
Rpl23,1,0.28,1.45,1.26,enough cells to score
Prss8,1,,1.26,1.23,fewer than 50 cells per well; well left out of scoring
Limk2,1,0.23,1.56,1.4,enough cells to score
Ccl12,1,,2.83,1.5,fewer than 50 cells per well; well left out of scoring
Ccl12,1,-0.95,1.38,1.45,enough cells to score
AB124611,1,-1.41,1.37,1.49,enough cells to score
Trim27,1,0.83,1.78,1.52,enough cells to score
Rps3a1,1,,1.38,1.2,fewer than 50 cells per well; well left out of scoring
Ccl27a,1,0.22,1.41,1.41,enough cells to score
Fahd2a,1,0.19,1.64,1.64,enough cells to score
Dnajc10,1,-0.1,1.44,1.36,enough cells to score
Shtn1,1,,1.16,1.1,fewer than 50 cells per well; well left out of scoring
C1qb,1,-0.47,1.58,1.51,enough cells to score
Clcnkb,1,0.16,1.65,1.77,enough cells to score
Gdi1,1,-1.64 (active),1.31,1.18,enough cells to score
